Test results reported in patent US6506793B2, “Citral acetal” (Kao Corporation, priority 2000, dated 2003).

Assay: Measurement of sustained release: organoleptic evaluation of aroma from impregnated filter paper
Parameters: key to Strength of Aroma: 5: Strong; 4: Slightly strong; 3: Moderate; 2: Slightly weak; 1: Weak; 0: Does not smell
Settings: for Strength of Aroma: 0.5 g (as citral) on filter paper, 10 cm from sample; for Aroma (character): organoleptic description, filter paper test

SMILES	Strength of Aroma (After 1 week)	Strength of Aroma (After 2 weeks)	Strength of Aroma (After 3 weeks)	Strength of Aroma (After 4 weeks)	Strength of Aroma (After 2 days)	Strength of Aroma (Just after application)	Aroma (character)
COC(C=C(C)CCC=C(C)C)OC [CITRAL DMA, citral dimethyl acetal, reference compound]	0	0	0	0	3	3	citrus
CC(C)=CCC/C(C)=C/C1OCC(C)O1 (stereo not drawn) [CITRAL PGA, citral propylene glycol acetal, reference compound]	1	1	0	0	0	0	weak
CCCCCOCC1COC(C=C(C)CCC=C(C)C)O1 (stereo not drawn) [Present Compound 1, citral pentyl glyceryl ether acetal]	1	2	2	1	0	0	lemon-
CCCCCCCCOCC1COC(C=C(C)CCC=C(C)C)O1 (stereo not drawn) [Present Compound 2, citral n-octyl glyceryl ether acetal]	1	2	2	1	0	0	lemon-
CCCCC(CC)COCC1COC(C=C(C)CCC=C(C)C)O1 (stereo not drawn) [Present Compound 3, citral 2-ethyl hexyl glyceryl ether acetal]	1	2	2	1	0	0	lemon-
CC(C)=CCCC(C)=CC=O [citral]	0	0	0	0	4	5	lemon-
